Some results were stated once for a whole list of compounds, not compound by compound.
Test system: Pyricularia oryzae
Assay type: cell-based
Conditions: 32 ppm; relative growth vs compound-free control (100%), 405 nm, 7 days after inoculation

## C=CCOC(Cn1cncn1)(c1ccc(Oc2ccc(Cl)cc2)cc1Cl)C(C)C (stereo not shown) [I-2, 1-[2-allyloxy-2-[2-chloro-4-(4-chlorophenoxy)phenyl]-3-methyl-butyl]-1,2,4-triazole]
  growth (Pyrior): ≤ 6%
